# From PubChem BioAssay AID1347423 (Functional Genomics Laboratory (NCATS/FGL), 2020)
# Out of some 52,000 sequences screened, about 210 (0.4%) were called active.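 Rule for the calls: active = gene whose silencing raises cell survival under the drug, median off-target-corrected z-score across its silencing RNAs 2 or more; inactive = the rest.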 This is one part of the list.
# Test: Resistance to Poly (ADP-Ribose) Polymerase inhibitor: Gene Identification via Genome-wide siRNA Screen
# Conditions: mouse BRCA2 R2336H ES cells, olaparib, CellTiter-Glo viability; hits give high values
# Procedure, shortened: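 Mouse BRCA2 R2336H ES cells were reverse-transfected with siRNA (20 nM final), treated at 48 h with 500 nM olaparib, and read by CellTiter-Glo after 72 h. Scores: MAD-based z per siRNA, median per gene, seed off-target correction.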
row,Sequence,z-score
1,GGAAUUCGGUUUCAGCUUCTT against Hs1bp1,inactive: 0.845
2,GGAUCAGUUGAUCUCAGUGTT against Olfr1406,inactive: -1.86
3,GGUACAUUGAGAACAACAGTT against Axin2,inactive: -0.0125
4,GGGUCUCUUCAGUUUUUUATT against Sfrs9,inactive: -1.01
5,CCGGUAUUGUGAGCAAAUUTT against MGC67168,inactive: 0.578
6,GGAAGCACUCAGUGCUCUGTT against Igfbp6,inactive: 0.255
7,GGUGGAAUUUUUGAAGUUUTT against 8030499H02Rik,inactive: 0.0409
8,CGAGAAACAGAGUAUCAAGTT against D530033C11Rik,inactive: -0.218
9,GGAAUCCUUUUGGAUAACATT against 6330411N01Rik,inactive: 0.662
10,GGUGCCAUUCAUCUUUCAATT against Tmprss3,inactive: -1.41
11,GGCAGGCAAUUCAAACAAUTT against Orm1,inactive: 0.924
12,GGUAUAAAGCAACUUACUATT against 5430435G22Rik,inactive: -0.922
13,GGGAAUCUUUAUCAGUGAGTT against 3830422K02Rik,inactive: -1.79
14,GGCUUCUUCCUCGUCUUUGTT against Obrgrp,inactive: -0.522
15,CCUGUUCAAAAGGUAUACATT against Fignl1,inactive: -0.469
16,GGGCAAAGAACUGAACGAATT against Pfdn2,inactive: -1.6
17,GCUCAAAUCGUACAAGUGUTT against Panx1,inactive: 0.158
18,GGCGGAAACUGAUCAGCUUTT against Fosb,inactive: 0.843
19,GUACUUUCUUGAACCAGAGTT against Cacng7,inactive: 0.633
20,GGGUUUCCUGCCUGCUCAUTT against Litaf,inactive: -0.281
21,GGCAUUAAACACUUGCCAGTT against Fshr,inactive: 2.19
22,CCAACAAAAAGAUUACAACTT against Akap7,inactive: 0.217
23,GGUACUAGGCCUGAUCUUGTT against 1110007C05Rik,inactive: -1.62
24,GCAACAUCCAGGCUUGCCUTT against 1110004B13Rik,inactive: -0.0857
25,GCAAACUCCAGCUCAACGATT against Galnt4,inactive: 0.331
26,GGCUCUAACAUGACAAUUUTT against Hyal1,inactive: 0.0996

row,Sequence,z-score
1,GCAUGUUCCAUGGAUUUUATT against Slfn10,inactive: 0.748
2,GGUCCUACAAAAAGAUGGATT against 0610006F02Rik,inactive: -0.71
3,GGUGGUUCACUGUAAGCCGTT against Spry4,inactive: -1.46
4,GCAAGUUUGGAGACAAUGATT against 4930547C10Rik,inactive: 0.749
5,GGUCCUAAAGCCUUUUCUATT against Mrpl10,inactive: 0.618
6,GGGUUGAACCAUUGUUAAATT against Cyld,inactive: 0.745
7,GGUAUGGGUGAGAGCAACUTT against 2310003L22Rik,inactive: -1.07
8,GGGCUGACUGCUCACUUAATT against Pnp,inactive: -1.27
9,GGAAUCUAUCUCUACUGUATT against Hp1bp3,inactive: 0.788
10,GCCGAAGAGGACAUCAUUGTT against D830032G16Rik,inactive: 1.24
11,CGGCCUUUAUGAAAAGUUATT against Rraga,inactive: 0.188
12,GGCAAGAUUUAGAGAAGCATT against Dnahc8,inactive: -1.07
13,UUCUAUGCCAUAUCCAUCATT against Olfr645,inactive: 0.947
14,GGAGUCAAAAGAAAAGAAGTT against Galm,inactive: 0.223
15,GGAAAACUUAUACUCAGAATT against V1rd20,inactive: -0.0883
16,GCGCAAUGAACGGUUCUACTT against D030028O16Rik,inactive: -1.11
17,GGACCUGAACACAGCUACUTT against Stoml1,inactive: 0.517
18,GGCCAUCUCUUUUAUUGUATT against 4833435D08Rik,inactive: -0.00425
19,GCAGGUUUAUGAAAGCUUUTT against 4921505C17Rik,inactive: -1.31
20,GGAAGUUACUGUUGAGUAGTT against Olfr114,inactive: -1.66
21,GGCACAAAUAUUCUGUACUTT against 9330182L06Rik,inactive: 1.15
22,CCACAUGAACAAUUUGGGCTT against Rpl9,inactive: -2.58
23,GCUUAGGAAUGGCGACAACTT against V1rh17,inactive: 0.566
24,GGAGCAUACAUCUAAGAUUTT against Zfp185,inactive: 2.17
25,CGGUAAUCAUUGCUGUUCUTT against H2-K1,inactive: -1.28
26,GGUGCAACCAGUGUGUGAUTT against Siat7f,inactive: -2.44

row,Sequence,z-score
1,GCUCUGUUCACACGUUUAATT against Arhgap10,inactive: -1.12
2,GGAGAUACCUGUCAAACAATT against Npm2,inactive: 0.848
3,GGAUCAUGGGCGAAUGAUGTT against Rae1,inactive: -0.951
4,GGUUCAUCUUUCAAAUCUATT against Kpna4,inactive: -1.35
5,GGAAUCCUUUGUCAAAGGATT against Myh2,inactive: 1.04
6,CUCUAAGCAGCCGAACACUTT against Scx,inactive: -0.461
7,GGGCUACAAACAUGGAACGTT against 6330580J24Rik,inactive: 1.58
8,GCUUCUGACUUGUGAUGUGTT against 8430411H09Rik,inactive: -0.177
9,GCGAUAUGCCCUAACUGGATT against Mmp24,inactive: -0.749
10,GGUGCAAAGGCUCAAACAGTT against Rasd1,inactive: 0.758
11,GCACUGGAAAUUGUAUAAATT against 4932701A20Rik,inactive: 0.0923
12,GGAAUUGUCUAACAGGCUGTT against Hoxd12,inactive: 0.815
13,GGAUUACAAUCAGGAGGUGTT against Icsbp1,inactive: -1.27
14,GGAGUUAAACCACUCAAGATT against Ceacam11,inactive: 0.808
15,GGCAUUCCUCUUGAAUAUUTT against Dck,inactive: -1.2
16,CGGUAUUUCGGCAUAAUAATT against Chek1,inactive: -1.99
17,CCUUUUUUGUCGUACGUUUTT against Prkx,inactive: -0.22
18,GCUUUUUGAGUCUGAUUUATT against Dmgdh,inactive: 1.06
19,GGGCAGUCCAGGAAGAUUGTT against Akap3,inactive: 0.416
20,GCAGUUCUACGGACAUUUCTT against Pcdhb1,inactive: 0.267
21,GGUGUGGUCCUUGCAUCUUTT against LOC223706,inactive: -1.7
22,GGAGACCUUCUGAAACUAATT against Zfp198,inactive: -0.875
23,CCUGUUUAGCAUCUGGGAGTT against Gpr1,inactive: 0.774
24,GGAAAAUGCCUCAAGACUUTT against Wdr5b,inactive: -1.4
25,GGUUCAAUUCAAGUCUUUATT against Olfr195,inactive: -0.164
26,GGGAGGAUGCUGUUUCCAATT against Ssr3,inactive: -0.528

row,Sequence,z-score
1,GCCUUCAUUCUGGUAGCUATT against Olfr207,inactive: -0.297
2,GCCUGAGUGAUAGUGAUUUTT against 4632404H22Rik,inactive: -0.442
3,GGAAUGAGAUUUCUUCAUGTT against Itih2,inactive: -0.232
4,CCGAUAGAUCUUAUUCUCATT against V1ri5,inactive: 0.0142
5,GGUUACUAUGGAGACCUGGTT against Mia,inactive: 0.107
6,GGCUGAAGUUACUUUGGAUTT against Nup98,inactive: -2.16
7,GGUACCUGACAAUGAUGAGTT against Etv1,inactive: -1.7
8,CGUUAAGAGUCCAAGUGAATT against Pvrl4,inactive: -0.186
9,GGUUAUUCAUGAUGUUUGCTT against Fbn1,inactive: 1.42
10,GGAUUCAUGAAAUAAGUCATT against Zfp426,inactive: 0.187
11,GGUUAUUAAGGAUAAACUGTT against Cops5,inactive: -2.48
12,GGCACUGAAACUGCUCCUGTT against Taar5,inactive: -1.14
13,GGUUCCUCACAAGCAUUCUTT against Olfr818,inactive: 0.39
14,GGAAGAUGUUGAUAAUAGATT against E130119P06Rik,inactive: 0.301
15,GGCCAACAAGCAGGUUUUUTT against 3110002H16Rik,inactive: 0.444
16,GGUGCUAUCUGAGAGGUACTT against Triobp,inactive: -0.776
17,GGGUAUAUCAGGGCCAAGUTT against Col4a5,inactive: -0.0254
18,GCCAACGAACUUUUUCGUATT against Zfp36l2,inactive: 0.373
19,GGCAAGGUUCUUGUUUUUATT against 1700020B09Rik,inactive: 0.103
20,CCCAGUUAGUGAGACUUACTT against B230362M20Rik,inactive: 0.21
21,GGAAAGAAACAGAAGCACATT against Il21,inactive: -0.344
22,GGAUUUGAUGCUAAAUGAATT against Pcdhb13,inactive: 0.238
23,GCGGUUGAUGCAUAUAAUUTT against Dyx1c1,inactive: -0.214
24,CGAUGUGGAAAGUCGGUAUTT against Csrp3,inactive: -1.7
25,CCCUGGUUCUAUGACUUAATT against Lass2,inactive: -1.66
26,GCAAGUGAAGAAACAGCACTT against Stx1b2,inactive: 0.519

# 21 entries from above, set out differently.
row | Sequence | z-score
1 | GCCUUCAUUCUGGUAGCUATT against Olfr207 | inactive: -0.297
3 | GGAAUGAGAUUUCUUCAUGTT against Itih2 | inactive: -0.232
4 | CCGAUAGAUCUUAUUCUCATT against V1ri5 | inactive: 0.0142
6 | GGCUGAAGUUACUUUGGAUTT against Nup98 | inactive: -2.16
7 | GGUACCUGACAAUGAUGAGTT against Etv1 | inactive: -1.7
10 | GGAUUCAUGAAAUAAGUCATT against Zfp426 | inactive: 0.187
11 | GGUUAUUAAGGAUAAACUGTT against Cops5 | inactive: -2.48
12 | GGCACUGAAACUGCUCCUGTT against Taar5 | inactive: -1.14
13 | GGUUCCUCACAAGCAUUCUTT against Olfr818 | inactive: 0.39
14 | GGAAGAUGUUGAUAAUAGATT against E130119P06Rik | inactive: 0.301
15 | GGCCAACAAGCAGGUUUUUTT against 3110002H16Rik | inactive: 0.444
16 | GGUGCUAUCUGAGAGGUACTT against Triobp | inactive: -0.776
17 | GGGUAUAUCAGGGCCAAGUTT against Col4a5 | inactive: -0.0254
18 | GCCAACGAACUUUUUCGUATT against Zfp36l2 | inactive: 0.373
19 | GGCAAGGUUCUUGUUUUUATT against 1700020B09Rik | inactive: 0.103
20 | CCCAGUUAGUGAGACUUACTT against B230362M20Rik | inactive: 0.21
21 | GGAAAGAAACAGAAGCACATT against Il21 | inactive: -0.344
22 | GGAUUUGAUGCUAAAUGAATT against Pcdhb13 | inactive: 0.238
23 | GCGGUUGAUGCAUAUAAUUTT against Dyx1c1 | inactive: -0.214
24 | CGAUGUGGAAAGUCGGUAUTT against Csrp3 | inactive: -1.7
26 | GCAAGUGAAGAAACAGCACTT against Stx1b2 | inactive: 0.519
